Data published in PMC4055699.

By UniProt entry, the sequences of proteins in these tests, tags left out. Residues count along the entry.
UniProt O96028, residues 782-1365: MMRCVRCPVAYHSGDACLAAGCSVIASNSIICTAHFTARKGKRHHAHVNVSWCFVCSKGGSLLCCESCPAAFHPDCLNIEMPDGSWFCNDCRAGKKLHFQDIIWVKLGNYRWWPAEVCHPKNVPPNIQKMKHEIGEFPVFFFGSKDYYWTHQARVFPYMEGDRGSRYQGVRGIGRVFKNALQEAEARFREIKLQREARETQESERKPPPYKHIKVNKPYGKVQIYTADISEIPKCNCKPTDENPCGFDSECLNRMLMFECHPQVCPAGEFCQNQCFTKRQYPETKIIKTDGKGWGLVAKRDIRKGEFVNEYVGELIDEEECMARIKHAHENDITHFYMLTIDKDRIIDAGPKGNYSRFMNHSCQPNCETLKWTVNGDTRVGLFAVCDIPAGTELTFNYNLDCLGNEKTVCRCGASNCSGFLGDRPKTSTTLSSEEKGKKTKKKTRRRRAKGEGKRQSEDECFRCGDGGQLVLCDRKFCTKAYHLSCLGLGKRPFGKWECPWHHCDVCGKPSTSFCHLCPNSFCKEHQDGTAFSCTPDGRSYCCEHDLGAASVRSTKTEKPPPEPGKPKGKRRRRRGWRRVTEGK
UniProt Q12923: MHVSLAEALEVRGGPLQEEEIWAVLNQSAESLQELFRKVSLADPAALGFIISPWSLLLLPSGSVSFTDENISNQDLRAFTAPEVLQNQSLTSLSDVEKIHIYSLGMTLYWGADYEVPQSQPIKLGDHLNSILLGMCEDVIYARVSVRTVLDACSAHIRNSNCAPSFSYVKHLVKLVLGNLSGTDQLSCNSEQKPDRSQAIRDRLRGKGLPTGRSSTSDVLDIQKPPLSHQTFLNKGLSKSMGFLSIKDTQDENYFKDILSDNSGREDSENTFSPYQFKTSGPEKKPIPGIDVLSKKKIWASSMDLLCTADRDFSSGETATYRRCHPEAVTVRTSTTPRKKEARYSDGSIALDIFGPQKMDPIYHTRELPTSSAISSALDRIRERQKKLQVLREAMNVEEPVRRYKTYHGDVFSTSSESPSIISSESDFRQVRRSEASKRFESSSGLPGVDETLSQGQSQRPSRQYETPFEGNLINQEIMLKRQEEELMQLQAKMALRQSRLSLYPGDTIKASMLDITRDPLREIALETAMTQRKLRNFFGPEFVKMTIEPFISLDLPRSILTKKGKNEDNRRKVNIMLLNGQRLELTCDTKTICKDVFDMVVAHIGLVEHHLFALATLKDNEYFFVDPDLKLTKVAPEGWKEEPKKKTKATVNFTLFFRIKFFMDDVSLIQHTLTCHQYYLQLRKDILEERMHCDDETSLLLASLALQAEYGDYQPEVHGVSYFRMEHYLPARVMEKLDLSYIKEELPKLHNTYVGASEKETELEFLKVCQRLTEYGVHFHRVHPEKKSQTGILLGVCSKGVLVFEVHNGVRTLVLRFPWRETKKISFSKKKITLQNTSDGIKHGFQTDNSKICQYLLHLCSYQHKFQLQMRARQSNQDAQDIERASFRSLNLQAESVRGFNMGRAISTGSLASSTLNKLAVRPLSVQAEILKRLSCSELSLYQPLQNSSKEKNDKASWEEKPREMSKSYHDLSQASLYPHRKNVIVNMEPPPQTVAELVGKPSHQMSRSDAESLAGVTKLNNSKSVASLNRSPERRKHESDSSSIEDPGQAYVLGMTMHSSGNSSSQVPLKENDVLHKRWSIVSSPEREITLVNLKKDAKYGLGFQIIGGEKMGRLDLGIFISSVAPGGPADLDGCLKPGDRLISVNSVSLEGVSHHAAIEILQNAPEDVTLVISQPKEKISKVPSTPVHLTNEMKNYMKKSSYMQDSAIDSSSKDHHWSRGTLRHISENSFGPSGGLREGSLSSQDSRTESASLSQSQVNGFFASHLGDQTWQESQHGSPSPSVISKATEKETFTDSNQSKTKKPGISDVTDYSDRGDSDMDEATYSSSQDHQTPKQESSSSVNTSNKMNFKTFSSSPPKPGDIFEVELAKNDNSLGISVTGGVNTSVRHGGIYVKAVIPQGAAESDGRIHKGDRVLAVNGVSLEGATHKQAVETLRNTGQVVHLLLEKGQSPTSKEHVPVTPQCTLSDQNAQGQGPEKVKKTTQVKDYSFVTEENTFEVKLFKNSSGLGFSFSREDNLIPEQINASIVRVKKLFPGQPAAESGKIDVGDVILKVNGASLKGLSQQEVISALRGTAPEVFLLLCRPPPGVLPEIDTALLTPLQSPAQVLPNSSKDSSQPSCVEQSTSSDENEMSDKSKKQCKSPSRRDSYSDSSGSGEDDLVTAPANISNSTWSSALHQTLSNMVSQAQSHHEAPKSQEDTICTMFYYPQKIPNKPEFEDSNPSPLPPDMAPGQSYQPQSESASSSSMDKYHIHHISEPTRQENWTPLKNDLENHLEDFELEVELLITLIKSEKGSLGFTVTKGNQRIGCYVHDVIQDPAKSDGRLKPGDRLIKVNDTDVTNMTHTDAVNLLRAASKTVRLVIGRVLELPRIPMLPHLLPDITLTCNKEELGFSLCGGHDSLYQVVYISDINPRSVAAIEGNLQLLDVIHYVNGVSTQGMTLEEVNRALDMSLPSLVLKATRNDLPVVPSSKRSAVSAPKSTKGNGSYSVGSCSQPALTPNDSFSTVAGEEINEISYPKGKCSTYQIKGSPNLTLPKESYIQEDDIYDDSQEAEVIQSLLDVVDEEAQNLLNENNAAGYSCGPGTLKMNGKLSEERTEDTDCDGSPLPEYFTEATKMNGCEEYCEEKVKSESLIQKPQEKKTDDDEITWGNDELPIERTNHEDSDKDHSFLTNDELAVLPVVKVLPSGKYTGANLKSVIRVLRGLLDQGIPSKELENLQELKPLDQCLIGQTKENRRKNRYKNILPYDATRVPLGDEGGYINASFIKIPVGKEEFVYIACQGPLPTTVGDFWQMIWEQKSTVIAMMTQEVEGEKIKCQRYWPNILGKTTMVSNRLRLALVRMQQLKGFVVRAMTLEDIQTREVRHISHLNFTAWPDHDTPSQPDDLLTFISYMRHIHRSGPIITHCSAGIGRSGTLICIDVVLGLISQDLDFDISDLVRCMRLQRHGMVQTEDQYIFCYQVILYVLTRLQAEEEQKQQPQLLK
UniProt O15042: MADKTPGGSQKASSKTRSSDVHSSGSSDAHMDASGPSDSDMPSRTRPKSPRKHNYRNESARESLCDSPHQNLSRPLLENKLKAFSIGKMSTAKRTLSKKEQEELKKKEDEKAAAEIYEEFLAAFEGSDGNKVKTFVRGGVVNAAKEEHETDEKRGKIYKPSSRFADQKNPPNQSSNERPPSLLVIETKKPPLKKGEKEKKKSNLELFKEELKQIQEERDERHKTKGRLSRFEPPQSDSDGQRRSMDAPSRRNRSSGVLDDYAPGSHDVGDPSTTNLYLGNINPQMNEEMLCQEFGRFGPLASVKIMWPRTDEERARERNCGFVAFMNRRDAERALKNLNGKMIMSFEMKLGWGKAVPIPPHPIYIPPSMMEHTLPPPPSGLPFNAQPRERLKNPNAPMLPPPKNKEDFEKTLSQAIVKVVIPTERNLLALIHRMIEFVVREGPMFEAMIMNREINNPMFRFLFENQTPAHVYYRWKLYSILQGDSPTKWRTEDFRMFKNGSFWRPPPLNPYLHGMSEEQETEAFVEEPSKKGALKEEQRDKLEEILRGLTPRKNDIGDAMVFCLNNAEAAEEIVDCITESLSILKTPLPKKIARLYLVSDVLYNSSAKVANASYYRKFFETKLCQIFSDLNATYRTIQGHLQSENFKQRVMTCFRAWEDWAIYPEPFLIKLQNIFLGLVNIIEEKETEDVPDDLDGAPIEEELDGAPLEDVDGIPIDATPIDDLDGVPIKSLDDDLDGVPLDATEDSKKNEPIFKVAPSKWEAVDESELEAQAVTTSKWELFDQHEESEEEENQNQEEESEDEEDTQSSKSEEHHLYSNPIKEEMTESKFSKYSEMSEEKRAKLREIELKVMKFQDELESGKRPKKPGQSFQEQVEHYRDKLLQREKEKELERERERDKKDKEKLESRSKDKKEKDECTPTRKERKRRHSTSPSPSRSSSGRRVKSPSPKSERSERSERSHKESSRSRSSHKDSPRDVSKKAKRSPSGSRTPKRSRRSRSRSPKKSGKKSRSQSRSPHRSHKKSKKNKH
UniProt Q16637: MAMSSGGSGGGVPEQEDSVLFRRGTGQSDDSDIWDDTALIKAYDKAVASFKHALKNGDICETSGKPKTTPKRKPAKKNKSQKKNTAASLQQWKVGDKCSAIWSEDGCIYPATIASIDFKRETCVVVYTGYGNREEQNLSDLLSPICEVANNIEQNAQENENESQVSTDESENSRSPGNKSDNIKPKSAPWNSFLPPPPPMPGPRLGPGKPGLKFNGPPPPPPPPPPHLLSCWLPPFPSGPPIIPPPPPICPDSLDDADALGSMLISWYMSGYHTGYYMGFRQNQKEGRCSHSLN
UniProt Q9UHI6: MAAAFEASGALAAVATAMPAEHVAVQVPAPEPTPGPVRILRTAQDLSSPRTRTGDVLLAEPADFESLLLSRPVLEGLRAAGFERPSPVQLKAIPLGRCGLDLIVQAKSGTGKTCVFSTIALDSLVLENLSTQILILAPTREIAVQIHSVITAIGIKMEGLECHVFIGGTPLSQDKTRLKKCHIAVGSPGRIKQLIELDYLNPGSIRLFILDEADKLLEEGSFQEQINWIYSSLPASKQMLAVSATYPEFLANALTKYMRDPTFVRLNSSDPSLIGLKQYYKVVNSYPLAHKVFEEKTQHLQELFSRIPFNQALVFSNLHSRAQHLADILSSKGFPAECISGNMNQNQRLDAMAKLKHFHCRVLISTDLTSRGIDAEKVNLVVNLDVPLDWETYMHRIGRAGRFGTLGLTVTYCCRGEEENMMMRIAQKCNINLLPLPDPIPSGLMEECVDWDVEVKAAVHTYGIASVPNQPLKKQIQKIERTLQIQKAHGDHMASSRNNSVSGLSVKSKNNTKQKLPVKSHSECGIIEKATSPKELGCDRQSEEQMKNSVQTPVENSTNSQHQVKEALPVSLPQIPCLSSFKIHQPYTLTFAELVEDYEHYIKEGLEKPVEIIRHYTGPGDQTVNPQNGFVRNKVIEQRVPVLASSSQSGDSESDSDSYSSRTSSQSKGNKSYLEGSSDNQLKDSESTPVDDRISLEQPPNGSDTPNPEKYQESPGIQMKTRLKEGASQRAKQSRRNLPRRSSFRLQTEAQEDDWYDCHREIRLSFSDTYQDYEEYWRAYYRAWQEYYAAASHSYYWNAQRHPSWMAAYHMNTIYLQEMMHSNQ
UniProt O14893: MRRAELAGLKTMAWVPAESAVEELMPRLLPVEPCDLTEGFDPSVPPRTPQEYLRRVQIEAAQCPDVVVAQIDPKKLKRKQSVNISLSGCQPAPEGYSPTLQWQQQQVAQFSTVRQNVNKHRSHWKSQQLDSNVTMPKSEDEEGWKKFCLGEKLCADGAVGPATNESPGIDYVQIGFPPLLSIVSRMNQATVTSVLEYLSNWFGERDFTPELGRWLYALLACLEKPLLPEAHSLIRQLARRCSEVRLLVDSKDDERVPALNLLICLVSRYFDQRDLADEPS
UniProt Q8WXD5: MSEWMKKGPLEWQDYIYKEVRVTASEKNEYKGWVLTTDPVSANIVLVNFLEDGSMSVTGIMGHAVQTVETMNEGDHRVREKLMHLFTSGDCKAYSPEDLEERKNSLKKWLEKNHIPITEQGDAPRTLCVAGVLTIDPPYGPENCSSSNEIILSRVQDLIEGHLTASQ
UniProt P98175: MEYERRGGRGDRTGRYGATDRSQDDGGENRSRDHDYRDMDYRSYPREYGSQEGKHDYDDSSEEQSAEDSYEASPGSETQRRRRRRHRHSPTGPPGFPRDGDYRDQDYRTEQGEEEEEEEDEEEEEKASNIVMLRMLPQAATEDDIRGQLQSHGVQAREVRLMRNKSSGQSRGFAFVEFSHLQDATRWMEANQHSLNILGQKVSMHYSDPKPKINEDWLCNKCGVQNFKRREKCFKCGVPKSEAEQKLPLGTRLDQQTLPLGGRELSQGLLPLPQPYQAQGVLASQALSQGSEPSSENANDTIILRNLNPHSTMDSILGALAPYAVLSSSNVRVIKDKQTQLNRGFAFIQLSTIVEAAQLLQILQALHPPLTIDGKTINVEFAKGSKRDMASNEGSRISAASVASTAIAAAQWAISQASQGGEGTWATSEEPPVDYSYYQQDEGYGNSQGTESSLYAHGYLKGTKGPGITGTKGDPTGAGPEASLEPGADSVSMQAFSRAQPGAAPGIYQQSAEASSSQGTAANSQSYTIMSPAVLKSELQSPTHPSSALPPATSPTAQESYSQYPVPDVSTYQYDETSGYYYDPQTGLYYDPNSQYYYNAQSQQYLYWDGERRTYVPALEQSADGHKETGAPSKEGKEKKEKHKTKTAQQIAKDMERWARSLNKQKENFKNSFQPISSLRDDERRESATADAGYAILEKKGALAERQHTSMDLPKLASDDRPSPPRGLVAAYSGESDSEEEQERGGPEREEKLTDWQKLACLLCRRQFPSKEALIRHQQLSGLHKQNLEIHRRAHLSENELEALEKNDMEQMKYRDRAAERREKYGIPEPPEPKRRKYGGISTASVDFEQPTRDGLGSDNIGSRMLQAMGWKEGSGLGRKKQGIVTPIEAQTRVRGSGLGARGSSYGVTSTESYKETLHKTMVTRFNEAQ

target: REIIBP Flag HIS construct (UniProt O96028); test: affinity purification with mass spectrometry; tandem affinity purification from H929::REIIBP lysate (untouched H929 as control): M2 anti-FLAG resin, 4°C, 1 hour, washes with 300 mM NaCl, elution with 3×FLAG peptide, then NiNTA agarose, elution with 250 mM imidazole; SDS-PAGE gel sections, LC-MS/MS; at least 10 fold enrichment in spectral counts for Table 1

| Molecule | binding |
| --- | --- |
| Tyrosine-protein phosphatase non-receptor type 13 (from UniProt Q12923 1-2485) | binds |
| U2SURP (from UniProt O15042 1-1029) | binds |
| Gem-associated protein 5 (from UniProt Q8TEQ6 1-1508) | binds |
| Survival motor neuron protein (from UniProt Q16637 1-294) | binds |
| Methylosome protein 50 (from UniProt Q9BQA1 1-342) | binds |
| Protein Daple (from UniProt Q9P219 1-2028) | binds |
| SF3B3 (from UniProt Q15393 1-1217) | binds |
| Component of gems 4 (from UniProt P57678 1-1058) | binds |
| Probable E3 ubiquitin-protein ligase MYCBP2 (from UniProt O75592 1-4678) | binds |
| Microtubule-associated protein 1B (from UniProt P46821 1-2468) | binds |
| Probable ATP-dependent RNA helicase DDX20 (from UniProt Q9UHI6 1-824) | binds |
| GEMIN8 (protein, UniProt Q9NWZ8 1-242) MAAVKASTSKATRPWYSHPVYARYWQHYHQAMAWMQSHHNAYRKAVESCFNLPWYLPSALLPQSSYDNEAAYPQSFYDHHVAWQDYPCSSSHFRRSGQHPRYSSRIQASTKEDQALSKEEEMETESDAEVECDLSNMEITEELRQYFAETERHREERRRQQQLDAERLDSYVNADHDLYCNTRRSVEAPTERPGERRQAEMKRLYGDSAAKIQAMEAAVQLSFDKHCDRKQPKYWPVIPLKF | binds |
| Phosphoribosyl pyrophosphate synthase-associated protein 2 (protein, UniProt O60256 1-369) MFCVTPPELETKMNITKGGLVLFSANSNSSCMELSKKIAERLGVEMGKVQVYQEPNRETRVQIQESVRGKDVFIIQTVSKDVNTTIMELLIMVYACKTSCAKSIIGVIPYFPYSKQCKMRKRGSIVSKLLASMMCKAGLTHLITMDLHQKEIQGFFNIPVDNLRASPFLLQYIQEEIPDYRNAVIVAKSPASAKRAQSFAERLRLGIAVIHGEAQDAESDLVDGRHSPPMVRSVAAIHPSLEIPMLIPKEKPPITVVGDVGGRIAIIVDDIIDDVDSFLAAAETLKERGAYKIFVMATHGLLSSDAPRRIEESAIDEVVVTNTIPHEVQKLQCPKIKTVDISMILSEAIRRIHNGESMSYLFRNIGLDD | binds |
| Golgin subfamily A member 3 (protein, UniProt Q08378 1-1498) MDGASAEQDGLQEDRSHSGPSSLPEAPLKPPGPLVPPDQQDKVQCAEVNRASTEGESPDGPGQGGLCQNGPTPPFPDPPSSLDPTTSPVGPDASPGVAGFHDNLRKSQGTSAEGSVRKEALQSLRLSLPMQETQLCSTDSPLPLEKEEQVRLQARKWLEEQLKQYRVKRQQERSSQPATKTRLFSTLDPELMLNPENLPRASTLAMTKEYSFLRTSVPRGPKVGSLGLPAHPREKKTSKSSKIRSLADYRTEDSNAGNSGGNVPAPDSTKGSLKQNRSSAASVVSEISLSPDTDDRLENTSLAGDSVSEVDGNDSDSSSYSSASTRGTYGILSKTVGTQDTPYMVNGQEIPADTLGQFPSIKDVLQAAAAEHQDQGQEVNGEVRSRRDSICSSVSLESSAAETQEEMLQVLKEKMRLEGQLEALSLEASQALKEKAELQAQLAALSTKLQAQVECSHSSQQRQDSLSSEVDTLKQSCWDLERAMTDLQNMLEAKNASLASSNNDLQVAEEQYQRLMAKVEDMQRSMLSKDNTVHDLRQQMTALQSQLQQVQLERTTLTSKLKASQAEISSLQSVRQWYQQQLALAQEARVRLQGEMAHIQVGQMTQAGLLEHLKLENVSLSQQLTETQHRSMKEKGRIAAQLQGIEADMLDQEAAFMQIQEAKTMVEEDLQRRLEEFEGERERLQRMADSAASLEQQLEQVKLTLLQRDQQLEALQQEHLDLMKQLTLTQEALQSREQSLDALQTHYDELQARLGELQGEAASREDTICLLQNEKIILEAALQAAKSGKEELDRGARRLEEGTEETSETLEKLREELAIKSGQVEHLQQETAALKKQMQKIKEQFLQQKVMVEAYRRDATSKDQLISELKATRKRLDSELKELRQELMQVHGEKRTAEAELSRLHREVAQVRQHMADLEGHLQSAQKERDEMETHLQSLQFDKEQMVAVTEANEALKKQIEELQQEARKAITEQKQKMRRLGSDLTSAQKEMKTKHKAYENAVGILSRRLQEALAAKEAADAELGQLRAQGGSSDSSLALHERIQALEAELQAVSHSKTLLEKELQEVIALTSQELEESREKVLELEDELQESRGFRKKIKRLEESNKKLALELEHEKGKLTGLGQSNAALREHNSILETALAKREADLVQLNLQVQAVLQRKEEEDRQMKHLVQALQASLEKEKEKVNSLKEQVAAAKVEAGHNRRHFKAASLELSEVKKELQAKEHLVQKLQAEADDLQIREGKHSQEIAQFQAELAEARAQLQLLQKQLDEQLSKQPVGNQEMENLKWEVDQKEREIQSLKQQLDLTEQQGRKELEGLQQLLQNVKSELEMAQEDLSMTQKDKFMLQAKVSELKNNMKTLLQQNQQLKLDLRRGAAKTRKEPKGEASSSNPATPIKIPDCPVPASLLEELLRPPPAVSKEPLKNLNSCLQQLKQEMDSLQRQMEEHALTVHESLSSWTPLEPATASPVPPGGHAGPRGDPQRHSQSRASKEGPGE | binds |
| Myb-binding protein 1A (protein, UniProt Q9BQG0 1-1328) MESRDPAQPMSPGEATQSGARPADRYGLLKHSREFLDFFWDIAKPEQETRLAATEKLLEYLRGRPKGSEMKYALKRLITGLGVGRETARPCYSLALAQLLQSFEDLPLCSILQQIQEKYDLHQVKKAMLRPALFANLFGVLALFQSGRLVKDQEALMKSVKLLQALAQYQNHLQEQPRKALVDILSEVSKATLQEILPEVLKADLNIILSSPEQLELFLLAQQKVPSKLKKLVGSVNLFSDENVPRLVNVLKMAASSVKKDRKLPAIALDLLRLALKEDKFPRFWKEVVEQGLLKMQFWPASYLCFRLLGAALPLLTKEQLHLVMQGDVIRHYGEHVCTAKLPKQFKFAPEMDDYVGTFLEGCQDDPERQLAVLVAFSSVTNQGLPVTPTFWRVVRFLSPPALQGYVAWLRAMFLQPDLDSLVDFSTNNQKKAQDSSLHMPERAVFRLRKWIIFRLVSIVDSLHLEMEEALTEQVARFCLFHSFFVTKKPTSQIPETKHPFSFPLENQAREAVSSAFFSLLQTLSTQFKQAPGQTQGGQPWTYHLVQFADLLLNHSHNVTTVTPFTAQQRQAWDRMLQTLKELEAHSAEARAAAFQHLLLLVGIHLLKSPAESCDLLGDIQTCIRKSLGEKPRRSRTKTIDPQEPPWVEVLVEILLALLAQPSHLMRQVARSVFGHICSHLTPRALQLILDVLNPETSEDENDRVVVTDDSDERRLKGAEDKSEEGEDNRSSESEEESEGEESEEEERDGDVDQGFREQLMTVLQAGKALGGEDSENEEELGDEAMMALDQSLASLFAEQKLRIQARRDEKNKLQKEKALRRDFQIRVLDLVEVLVTKQPENALVLELLEPLLSIIRRSLRSSSSKQEQDLLHKTARIFTHHLCRARRYCHDLGERAGALHAQVERLVQQAGRQPDSPTALYHFNASLYLLRVLKGNTAEGCVHETQEKQKAGTDPSHMPTGPQAASCLDLNLVTRVYSTALSSFLTKRNSPLTVPMFLSLFSRHPVLCQSLLPILVQHITGPVRPRHQACLLLQKTLSMREVRSCFEDPEWKQLMGQVLAKVTENLRVLGEAQTKAQHQQALSSLELLNVLFRTCKHEKLTLDLTVLLGVLQGQQQSLQQGAHSTGSSRLHDLYWQAMKTLGVQRPKLEKKDAKEIPSATQSPISKKRKKKGFLPETKKRKKRKSEDGTPAEDGTPAATGGSQPPSMGRKKRNRTKAKVPAQANGTPTTKSPAPGAPTRSPSTPAKSPKLQKKNQKPSQVNGAPGSPTEPAGQKQHQKALPKKGVLGKSPLSALARKKARLSLVIRSPSLLQSGAKKKAQVRKAGKP | binds |

The remaining lines, values ahead:

| binding | Molecule |
| --- | --- |
| binds | Kinesin-like protein KIF11 (from UniProt P52732 1-1056) |
| binds | GEMIN2 (from UniProt O14893 1-280) |
| binds | GEMIN7 (from UniProt Q9H840 1-131) |
| binds | GEMIN6 (from UniProt Q8WXD5 1-167) |
| binds | RNA-binding protein 10 (from UniProt P98175 1-930) |
| binds | Thyroid hormone receptor-associated protein 3 (protein, UniProt Q9Y2W1 1-955) MSKTNKSKSGSRSSRSRSASRSRSRSFSKSRSRSRSLSRSRKRRLSSRSRSRSYSPAHNRERNHPRVYQNRDFRGHNRGYRRPYYFRGRNRGFYPWGQYNRGGYGNYRSNWQNYRQAYSPRRGRSRSRSPKRRSPSPRSRSHSRNSDKSSSDRSRRSSSSRSSSNHSRVESSKRKSAKEKKSSSKDSRPSQAAGDNQGDEAKEQTFSGGTSQDTKASESSKPWPDATYGTGSASRASAVSELSPRERSPALKSPLQSVVVRRRSPRPSPVPKPSPPLSSTSQMGSTLPSGAGYQSGTHQGQFDHGSGSLSPSKKSPVGKSPPSTGSTYGSSQKEESAASGGAAYTKRYLEEQKTENGKDKEQKQTNTDKEKIKEKGSFSDTGLGDGKMKSDSFAPKTDSEKPFRGSQSPKRYKLRDDFEKKMADFHKEEMDDQDKDKAKGRKESEFDDEPKFMSKVIGANKNQEEEKSGKWEGLVYAPPGKEKQRKTEELEEESFPERSKKEDRGKRSEGGHRGFVPEKNFRVTAYKAVQEKSSSPPPRKTSESRDKLGAKGDFPTGKSSFSITREAQVNVRMDSFDEDLARPSGLLAQERKLCRDLVHSNKKEQEFRSIFQHIQSAQSQRSPSELFAQHIVTIVHHVKEHHFGSSGMTLHERFTKYLKRGTEQEAAKNKKSPEIHRRIDISPSTFRKHGLAHDEMKSPREPGYKAEGKYKDDPVDLRLDIERRKKHKERDLKRGKSRESVDSRDSSHSRERSAEKTEKTHKGSKKQKKHRRARDRSRSSSSSSQSSHSYKAEEYTEETEEREESTTGFDKSRLGTKDFVGPSERGGGRARGTFQFRARGRGWGRGNYSGNNNNNSNNDFQKRNREEEWDPEYTPKSKKYYLHDDREGEGSDKWVSRGRGRGAFPRGRGRFMFRKSSTSPKWAHDKFSGEEGEIEDDESGTENREEKDNIQPTTE |

Results are given in words; binding and its absence hold for the method and conditions named. Binding seen in cells or lysates may run through a third protein. These calls come from enrichment with a bait or labelling near it, and not all partners need be listed.
